Measured values: article PMC11024185
Results are given in words; binding and its absence hold for the method and conditions named. In cells and extracts the contact can be indirect. These calls come from enrichment with a bait or labelling near it, and not all partners need be listed. For some assays here: Where a sequence is shown, tags or fusion partners need not be part of it. Values belong to the molecule of their own block, whether it stands above or below them.

By UniProt entry, the sequences of proteins in these tests, tags left out.
UniProt Q03532: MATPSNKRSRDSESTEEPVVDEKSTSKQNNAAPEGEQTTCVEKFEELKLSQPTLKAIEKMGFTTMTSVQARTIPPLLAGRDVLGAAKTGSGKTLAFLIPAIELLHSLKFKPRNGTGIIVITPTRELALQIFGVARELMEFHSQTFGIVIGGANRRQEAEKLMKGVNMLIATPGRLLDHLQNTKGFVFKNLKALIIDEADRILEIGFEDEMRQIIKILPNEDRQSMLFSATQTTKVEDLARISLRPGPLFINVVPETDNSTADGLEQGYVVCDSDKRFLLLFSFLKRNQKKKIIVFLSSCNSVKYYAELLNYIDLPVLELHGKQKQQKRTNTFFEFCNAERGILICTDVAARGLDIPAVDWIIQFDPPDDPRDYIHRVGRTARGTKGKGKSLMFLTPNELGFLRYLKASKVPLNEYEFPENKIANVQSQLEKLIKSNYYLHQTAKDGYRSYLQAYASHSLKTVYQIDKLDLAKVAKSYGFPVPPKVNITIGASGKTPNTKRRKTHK
UniProt P40007: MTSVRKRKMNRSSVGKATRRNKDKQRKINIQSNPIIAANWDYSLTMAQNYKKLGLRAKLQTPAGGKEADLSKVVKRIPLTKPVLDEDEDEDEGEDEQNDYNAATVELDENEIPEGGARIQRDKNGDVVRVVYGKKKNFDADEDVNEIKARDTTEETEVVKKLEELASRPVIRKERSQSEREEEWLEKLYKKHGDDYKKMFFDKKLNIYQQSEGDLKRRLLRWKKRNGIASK
UniProt Q06205: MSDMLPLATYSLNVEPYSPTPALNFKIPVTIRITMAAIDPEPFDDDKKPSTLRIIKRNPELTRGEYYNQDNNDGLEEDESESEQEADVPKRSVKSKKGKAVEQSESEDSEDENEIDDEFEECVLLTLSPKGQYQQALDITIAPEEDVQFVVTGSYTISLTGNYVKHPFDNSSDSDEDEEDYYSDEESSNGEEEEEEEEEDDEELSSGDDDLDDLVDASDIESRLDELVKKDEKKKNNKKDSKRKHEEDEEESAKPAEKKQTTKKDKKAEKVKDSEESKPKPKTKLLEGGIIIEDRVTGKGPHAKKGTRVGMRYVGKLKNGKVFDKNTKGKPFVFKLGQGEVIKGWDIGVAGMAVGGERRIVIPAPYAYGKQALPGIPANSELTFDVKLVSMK
UniProt P14126: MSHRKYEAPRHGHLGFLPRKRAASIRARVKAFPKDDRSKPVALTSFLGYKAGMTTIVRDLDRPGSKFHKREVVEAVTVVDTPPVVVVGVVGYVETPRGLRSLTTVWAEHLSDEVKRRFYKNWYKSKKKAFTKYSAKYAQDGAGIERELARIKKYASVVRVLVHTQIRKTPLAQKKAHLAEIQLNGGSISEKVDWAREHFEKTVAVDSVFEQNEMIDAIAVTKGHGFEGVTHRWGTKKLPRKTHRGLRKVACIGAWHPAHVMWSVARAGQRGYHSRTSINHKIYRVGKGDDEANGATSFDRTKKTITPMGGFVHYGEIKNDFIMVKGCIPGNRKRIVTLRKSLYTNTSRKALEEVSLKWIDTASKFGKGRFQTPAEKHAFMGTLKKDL

What was measured:
[1] = molecular target: T1, Dbp10 (2xStrep-bdNEDD8-DBP10) (S. cerevisiae) (UniProt Q12389); assay: affinity purification with mass spectrometry; split-tag purification of pre-60S particles from steady state DBP10 yeast: IgG Sepharose on Ssf1-2xProteinA, 3C cleavage, then Strep-Tactin on 2xStrep-Dbp10, desthiobiotin elution; buffers with 50 µM ADP-BeF3; Coomassie-stained 4-20% SDS-PAGE, bands named by molecular weight, ambiguous bands by mass spectrometry
T1 sequence: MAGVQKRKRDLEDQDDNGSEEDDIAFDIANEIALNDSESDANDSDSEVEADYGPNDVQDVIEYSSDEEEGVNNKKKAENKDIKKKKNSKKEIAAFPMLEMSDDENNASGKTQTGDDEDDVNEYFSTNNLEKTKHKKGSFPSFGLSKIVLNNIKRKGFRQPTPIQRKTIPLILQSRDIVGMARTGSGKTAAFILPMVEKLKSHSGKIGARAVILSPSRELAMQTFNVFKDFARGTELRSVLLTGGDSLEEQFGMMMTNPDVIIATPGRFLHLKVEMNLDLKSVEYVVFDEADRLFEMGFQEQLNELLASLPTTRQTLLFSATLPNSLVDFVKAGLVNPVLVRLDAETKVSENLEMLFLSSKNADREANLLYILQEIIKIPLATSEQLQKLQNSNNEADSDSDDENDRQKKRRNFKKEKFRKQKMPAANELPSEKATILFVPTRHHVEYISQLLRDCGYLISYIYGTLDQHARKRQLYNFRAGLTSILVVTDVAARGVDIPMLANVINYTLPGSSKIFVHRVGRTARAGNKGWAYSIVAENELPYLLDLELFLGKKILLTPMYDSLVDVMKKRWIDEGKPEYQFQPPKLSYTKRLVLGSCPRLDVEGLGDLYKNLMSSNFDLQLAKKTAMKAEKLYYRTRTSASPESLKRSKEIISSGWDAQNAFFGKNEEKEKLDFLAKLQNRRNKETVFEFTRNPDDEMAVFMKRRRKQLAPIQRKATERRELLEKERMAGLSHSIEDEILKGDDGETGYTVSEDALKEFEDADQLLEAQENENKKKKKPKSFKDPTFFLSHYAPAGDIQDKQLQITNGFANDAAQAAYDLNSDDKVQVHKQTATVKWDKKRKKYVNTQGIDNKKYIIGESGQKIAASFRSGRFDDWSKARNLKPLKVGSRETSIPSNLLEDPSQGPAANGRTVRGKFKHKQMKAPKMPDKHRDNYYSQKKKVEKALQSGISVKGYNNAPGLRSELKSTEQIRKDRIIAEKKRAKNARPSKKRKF

[2] = molecular target: T2, Ssf1-3xFLAG-3C-2xProteinA (S. cerevisiae) (UniProt P38789); assay: as above
T2 sequence: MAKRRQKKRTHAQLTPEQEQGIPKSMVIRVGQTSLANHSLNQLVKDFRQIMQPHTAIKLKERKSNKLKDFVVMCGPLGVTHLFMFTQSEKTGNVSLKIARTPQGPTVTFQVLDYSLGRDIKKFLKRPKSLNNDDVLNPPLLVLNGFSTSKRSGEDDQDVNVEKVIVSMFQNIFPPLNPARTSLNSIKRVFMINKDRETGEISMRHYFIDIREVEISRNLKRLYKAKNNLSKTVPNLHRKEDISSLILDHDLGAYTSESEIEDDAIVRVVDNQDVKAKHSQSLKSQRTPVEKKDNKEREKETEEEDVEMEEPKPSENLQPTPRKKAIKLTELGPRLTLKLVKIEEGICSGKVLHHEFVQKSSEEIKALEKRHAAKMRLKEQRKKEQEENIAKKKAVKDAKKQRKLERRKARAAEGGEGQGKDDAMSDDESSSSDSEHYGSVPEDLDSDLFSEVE

[3] = molecular target: T1, Dbp10 (2xStrep-bdNEDD8-DBP10) (S. cerevisiae); assay: affinity purification with mass spectrometry; split-tag purification of pre-60S particles from SPB4-AID yeast without and with auxin (0.5 mM IAA, 45 min): IgG Sepharose on Noc2-2xProteinA, 3C cleavage, then Strep-Tactin on 2xStrep-Dbp10; buffers with 50 µM ADP-BeF3; Coomassie-stained 4-20% SDS-PAGE, bands named by molecular weight, ambiguous bands by mass spectrometry; auxin gave ~10-fold enrichment of the particle
[4] = molecular target: T3, Noc2-3xFLAG-3C-2xProteinA (S. cerevisiae) (UniProt P39744); assay: as above
T3 sequence: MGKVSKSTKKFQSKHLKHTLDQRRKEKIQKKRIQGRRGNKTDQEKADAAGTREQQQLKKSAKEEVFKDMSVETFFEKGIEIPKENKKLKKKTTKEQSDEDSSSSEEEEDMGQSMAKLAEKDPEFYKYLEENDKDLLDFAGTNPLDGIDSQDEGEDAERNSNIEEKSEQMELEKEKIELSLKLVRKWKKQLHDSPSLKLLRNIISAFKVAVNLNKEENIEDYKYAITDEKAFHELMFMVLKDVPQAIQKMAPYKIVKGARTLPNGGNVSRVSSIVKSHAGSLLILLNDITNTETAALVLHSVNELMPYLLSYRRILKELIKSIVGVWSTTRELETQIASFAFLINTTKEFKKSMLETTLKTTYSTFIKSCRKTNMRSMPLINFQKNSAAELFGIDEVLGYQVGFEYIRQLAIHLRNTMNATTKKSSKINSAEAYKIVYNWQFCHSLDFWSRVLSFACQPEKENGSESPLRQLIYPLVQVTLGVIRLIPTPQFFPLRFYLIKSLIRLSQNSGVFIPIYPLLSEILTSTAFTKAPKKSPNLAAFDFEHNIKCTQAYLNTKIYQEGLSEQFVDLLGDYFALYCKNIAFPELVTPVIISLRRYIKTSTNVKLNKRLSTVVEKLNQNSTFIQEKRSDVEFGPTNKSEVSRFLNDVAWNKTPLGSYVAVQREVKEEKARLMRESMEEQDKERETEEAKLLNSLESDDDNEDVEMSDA

binding [1]: binds
binding [2]: binds
binding [3]: binds
binding [4]: binds
Molecule: Has1 (from UniProt Q03532 1-505) (enzyme)

binding [1]: binds
binding [2]: binds
binding [3]: binds
Molecule: uL4 (S. cerevisiae (endogenous in yeast))

binding [1]: binds
binding [2]: binds
binding [3]: binds
binding [4]: binds
Molecule: Nop16 (from UniProt P40007 1-231)

binding [1]: binds
binding [2]: binds
binding [3]: binds
binding [4]: binds
Molecule: Fpr4 (from UniProt Q06205 1-392)

binding [1]: binds
binding [2]: binds
binding [3]: binds
binding [4]: binds
Molecule: uL3 (from UniProt P14126 1-387)

binding [1]: binds
binding [2]: binds
binding [3]: binds
binding [4]: binds
B1: Rlp7 (protein, UniProt P40693 1-322)
chain: MSSTQDSKAQTLNSNPEILLRKRRNADRTRIERQELAKKKREEQIKKKRSNKNKFVRAESIVAKTLATSREKERIKRVSILEDKKAKNETQHIASGKDFILKITEKANGAEENSVDLEETEEEEDDGLIREKTTYDGKPALLFIVRVRGPLAVNIPNKAFKILSLLRLVETNTGVFVKLTKNVYPLLKVIAPYVVIGKPSLSSIRSLIQKRGRIIYKGENEAEPHEIVLNDNNIVEEQLGDHGIICVEDIIHEIATMGESFSVCNFFLQPFKLNREVSGFGSLNRLRKIKQREAESRTRQFSNAATAPVIEVDIDSLLAKLN

binding [1]: binds
binding [2]: binds
B2: Rpf1 (protein, UniProt P38805 1-295)
chain: MALGNEINITNKLKRQEIFADIKHEKNKERHTMRRKRAKEERENPELREQRLKENVTQTIENTRVYDETINKEVEGDEDDLMRYFNSNSNEPPKIFLTTNVNAKKSAYEFANILIEILPNVTFVKRKFGYKLKEISDICIKRNFTDIVIINEDKKKVTGLTFIHLPEGPTFYFKLSSFVEVKKIVGHGRPTSHIPELILNNFQTRLGQTVGRLFQSILPQNPDIEGRQVITLHNQRDYIFFRRHRYVFKDNERVGLQELGPQFTLKLKRLQRGIKEETEWEHKPEMDKEKKKFYL

binding [1]: binds
binding [2]: binds
binding [3]: binds
binding [4]: binds
B3: Ytm1 (protein, UniProt Q12024 1-460)
chain: MTEDKSQVKIRFFTREKDELLHVQDTPMYAPISLKRYGLSEIVNHLLGSEKPVPFDFLIEGELLRTSLHDYLTKKGLSSEASLNVEYTRAILPPSYLNSFSNEDWVSSLDVGDGSKHIISGSYDGIVRTWDLSGNVQKQYSGHSGPIRAVKYISNTRLVSAGNDRTLRLWKTKNDDLKLTSQQQAQEDDDDEVNIEDGKTLAILEGHKAPVVSIDVSDNSRILSASYDNSIGFWSTIYKEMTVVDPLEDINNPNNKISTAARKRRKLTMKDGTIRRRAPLSLLESHTAPVEQVIFDSTDNTVGYSVSQDHTIKTWDLVTARCIDTRTTSYSLLSIAQLSTLNLLACGSSARHITLHDPRVGASSKVTQQQLIGHKNFVSSLDTCPENEYILCSGSHDGTVKVWDVRSTSPMYTITREDKSVQKGVNDKVFAVKWAEKVGIISAGQDKKIQINKGDNIFKN

binding [1]: binds
binding [2]: binds
B4: Rrp1 (protein, UniProt P35178 1-278)
chain: METSNFVKQLSSNNRKTRVNALEALKKYLTAKQFKENKQIEFNKLWKGLYYAMWFSDRPRPQQRLANELGELHGLYFDPKDNSTADELTTNDKAFIKFSRGFWKVMCFEWFNIDRYRLDKYLLLIRRVLFSQLKYLQSRNWDKKLVDEYIKKVLRWLPLSGSPKVYTGIPIHIVDILLDEWERLLKDGDEDDEDEENKEEEMRKIAESAKKTPLADVIAIFQDIVADYNNSKVLREKIKEDLFSDTRLVSWDILEGETQHNDSSNESEEEEEEEWKGF

binding [1]: binds
binding [2]: binds
binding [3]: binds
binding [4]: binds
B5: Rpf2 (protein, UniProt P36160 1-344)
chain: MIRTVKPKNARAKRALVKREAKLVENVKQALFIPGQSCNKNLHDIMVDLSALKKPDMKRFNRKNDIHPFEDMSPLEFFSEKNDCSLMVLMTSSKKRKNNMTFIRTFGYKIYDMIELMVADNFKLLSDFKKLTFTVGLKPMFTFQGAAFDTHPVYKQIKSLFLDFFRGESTDLQDVAGLQHVISMTIQGDFQDGEPLPNVLFRVYKLKSYKSDQGGKRLPRIELVEIGPRLDFKIGRIHTPSPDMVTEAHKKPKQLEMKTKKNVELDIMGDKLGRIHMGKQDLGKLQTRKMKGLKSKFDQGTEEGDGEVDEDYEDEASYSDDGQEYEEEFVSATDIEPSAKRQKK

binding [1]: binds
binding [2]: binds
binding [3]: binds
binding [4]: binds
B6: uL18 (protein, UniProt P26321 1-297)
chain: MAFQKDAKSSAYSSRFQTPFRRRREGKTDYYQRKRLVTQHKAKYNTPKYRLVVRFTNKDIICQIISSTITGDVVLAAAYSHELPRYGITHGLTNWAAAYATGLLIARRTLQKLGLDETYKGVEEVEGEYELTEAVEDGPRPFKVFLDIGLQRTTTGARVFGALKGASDGGLYVPHSENRFPGWDFETEEIDPELLRSYIFGGHVSQYMEELADDDEERFSELFKGYLADDIDADSLEDIYTSAHEAIRADPAFKPTEKKFTKEQYAAESKKYRQTKLSKEERAARVAAKIAALAGQQ

binding [1]: binds
binding [2]: binds
B7: Mak16 (protein, UniProt P10962 1-306)
chain: MSDEIVWQVINQSFCSHRIKAPNGQNFCRNEYNVTGLCTRQSCPLANSKYATVKCDNGKLYLYMKTPERAHTPAKLWERIKLSKNYTKALQQIDEHLLHWSKFFRHKCKQRFTKLTQVMITERRLALREEERHYVGVAPKVKRREQNRERKALVAAKIEKAIEKELMDRLKSGAYGDKPLNVDEKVWKKIMGQMEEENSQDEEEDWDEEEESDDGEVEYVADDGEGEYVDVDDLEKWLADSDREASSASESESDSESESDSDSDEENKNSAKRRKKGTSAKTKRPKVEIEYEEEHEVQNAEQEVAQ
